Assay results as given in the supplement of paper PMC3334620.
The full ranking holds about 33,000 sequences; the median of “E-score (-0.5 to 0.5)” is about -0.015, and the highest 2% start at about 0.3. Some of the results follow.

target: T1, Abf1 (UniProt P14164); test: PBM E-score (8-mer binding enrichment) (E-score (-0.5 to 0.5)); higher = stronger / more preferred TF binding; conditions: protein concentration: 200 nM; construct: GST-full length
T1 sequence: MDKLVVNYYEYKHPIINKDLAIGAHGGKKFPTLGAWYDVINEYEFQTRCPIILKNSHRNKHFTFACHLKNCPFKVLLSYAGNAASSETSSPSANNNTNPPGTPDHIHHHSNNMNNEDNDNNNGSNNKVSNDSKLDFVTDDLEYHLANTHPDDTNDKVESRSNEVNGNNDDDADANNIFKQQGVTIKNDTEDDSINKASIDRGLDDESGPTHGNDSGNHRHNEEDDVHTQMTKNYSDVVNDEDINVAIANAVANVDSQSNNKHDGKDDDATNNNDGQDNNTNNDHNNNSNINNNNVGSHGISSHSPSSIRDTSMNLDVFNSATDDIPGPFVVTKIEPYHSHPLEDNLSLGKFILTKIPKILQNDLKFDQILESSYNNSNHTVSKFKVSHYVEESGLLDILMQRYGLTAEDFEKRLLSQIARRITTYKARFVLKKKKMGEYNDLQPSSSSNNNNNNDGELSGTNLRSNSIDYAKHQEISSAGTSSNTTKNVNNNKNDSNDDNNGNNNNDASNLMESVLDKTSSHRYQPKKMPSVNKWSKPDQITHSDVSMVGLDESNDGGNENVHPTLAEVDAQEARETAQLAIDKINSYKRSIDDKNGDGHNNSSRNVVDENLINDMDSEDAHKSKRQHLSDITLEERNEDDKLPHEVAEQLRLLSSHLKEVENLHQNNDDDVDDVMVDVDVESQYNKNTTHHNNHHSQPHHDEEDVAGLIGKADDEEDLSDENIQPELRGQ
How it was run: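 Full-length yeast transcription factors or their DNA-binding domains, GST-tagged and expressed with PURExpress, were applied at about 100-200 nM to universal all-10-mer Agilent arrays. These arrays had been made double-stranded by primer extension on fresh or once-stripped slides. Detection used fluorescent anti-GST, normalisation used masliner, and E-scores for ungapped eight-base words pooled with reverse complements came from the Universal PBM Analysis Suite.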

Sequence | PBM E-score
AAACGGGC | 0.151
ATGCCGTC | -0.00725
GCTTAATA | 0.0372
CATTCGAA | -0.0243
ATGGTCTG | -0.0499
GATGTAAC | 0.0725
GATGGGAC | -0.154
ATTCGTTG | 0.0365
CCTGTCCG | -0.0665
CGGGAGCC | -0.133
GTGTAGCA | -0.147
ACCCAAAG | -0.252
GGAAGGCC | -0.212
GTGCAAAC | 0.0304
CCTGCTTC | -0.177
CATATGCA | -0.139
TACGAAGA | 0.334
AGCTTACT | 0.0678
CAAGAGTG | -0.0854
CGTCAACA | 0.0216
AGCTTAGA | -0.0458
AGGTGATA | 0.357
CCAGAAAG | -0.0391
CACCCGGG | -0.108
ACATATTG | 0.0417

Sequence | PBM E-score
AAGGCAGC | -0.103
AGGCACCC | -0.341
CCGGGCAC | -0.151
ATCAATCG | 0.0642
CAGCAACA | 0.00765
CGATGGTC | 0.0507
CATAATGA | 0.18
GGGCCCGA | -0.0496
ATTCGGAG | -0.0266
CCTTGTAG | -0.0444
AGCTCTTC | 0.0624
ATCGACTG | -0.0459
TATTTACA | 0.0789
CTCCCCCC | -0.351
CTCTCAAG | -0.0784
ATTGTGCA | 0.0876
GAAGTCAC | 0.211
ATGAGGTC | 0.152
AGTGGTCA | 0.159
CAAACGAA | 0.145
ACTCAAAG | 0.0179
CCACCCGG | -0.115
AACAAACT | 0.0627
CTCAGCGA | 0.099
CCTCGACC | -0.181

Sequence | PBM E-score
AGCAAGCC | -0.0902
CCGGATGA | -0.024
AAGCGTGA | 0.16
ACATGCAG | 0.0575
CTACCGAG | -0.167
CTTTAATA | 0.0795
AGACAAAC | -0.0166
CGTCGAAC | 0.246
AATAGGCC | -0.237
AACAGGTA | 0.0666
CTAGTGGC | -0.065
AAATTTGG | -0.017
ATGAGTCC | -0.166
ATAAGCGC | -0.0316
CAGTTCCG | 0.0263
CTGCACTC | -0.232
AGACCCCG | -0.0859
AGAGCCAT | -0.115
GCCAGTCC | -0.308
CGCGGCAG | 0.0374
GACAAAGC | 0.0771
AATGAGGG | -0.252
CTTGCACA | 0.0331
CCCACGTC | 0.0793
GATCGAGC | -0.0632

Sequence | PBM E-score
GACCCCTA | -0.262
ACTGTTTC | 0.0348
AGCCCGAC | -0.214
ACCTATCT | -0.00941
ACGCGTAT | 0.104
GGAGTAGA | -0.0393
TATCGATA | -0.105
ACCTGGAT | -0.113
AGCCTAAG | -0.0931
CACACAGA | -0.0416
GTTGTCTA | 0.0596
ATCGACAG | -0.0272
CGTCTAAG | 0.148
AACCTATA | 0.0575
AGCTGGTC | -0.045
CTTGTCGA | 0.01
CCAAGACG | -0.0818
ACTGTCCA | 0.0342
ACAACGAG | -0.0816
ATGCGGTA | -0.0963
TATTACAA | -0.006
CCGTCTGC | 0.146
AAATGTCG | 0.0708
AGCCAAAT | -0.0482
AATCTCAT | 0.159

A second format for part of the listing above.
Sequence,PBM E-score
GACCCCTA,-0.262
ACTGTTTC,0.0348
AGCCCGAC,-0.214
CACACAGA,-0.0416
AGCTGGTC,-0.045

Later entries

Sequence | PBM E-score
CAGTCACA | 0.134
CTAGGGGA | -0.123
CTGGTGTC | -0.221
CTCGACAG | -0.149
AAGGAGCA | -0.13
CACAATCC | 0.0428
ACTCACGA | 0.188
ATTTTTAG | 0.0116
GACACTGC | -0.206
CCATAACC | -0.129
GAGCTGCC | -0.0575
CGGAAAGA | -0.131
CCAAACTA | -0.0694
AACGAACT | -0.0418
TCGTCGCA | 0.322
ACGATAGT | 0.246
CTGGGGGC | -0.346
ATGAGGCG | -0.0899
ATCGGTTG | -0.136
AGCAACGG | 0.136
AGCAATGA | 0.124
GGAGTTCA | -0.122
TGATCACA | 0.292
CGAATTCA | -0.0237
CCTACGTA | -0.0223

Sequence | PBM E-score
CTGGATCA | 0.0261
AAATGGCG | -0.103
AGCCAGGC | -0.0346
CGGCAATA | 0.166
TAGAACTA | -0.165
ACGTCCAT | -0.0592
AGGTGATC | 0.276
GAGGGTAC | -0.115
AGCCGGTG | -0.072
ATCCTACC | -0.0668
CTCGCAGA | -0.217
ACGTATTA | 0.258
GGGTTACA | 0.0284
CACTCGTA | 0.25
TCCGCTCA | -0.188
ATTGAAAC | -0.00069
ACTAATGA | 0.212
GGAATTGA | 0.0258
CAGGATTC | -0.0145
GCACCTTA | -0.171
ACTTAGAG | -0.136
CGGACTAC | 0.0179
CAGCAGGC | 0.0485
CGGCCACG | -0.17
CGATCACG | 0.298

A run of entries from further up:
Sequence | PBM E-score
ACGTATTA | 0.258
GGGTTACA | 0.0284
CACTCGTA | 0.25

More entries

Sequence | PBM E-score
CGCGAAGC | 0.115
ACAGTCTC | -0.177
AGCGCAGG | -0.248
AGTACATG | -0.0104
GTAGTCGA | 0.0326
ATTACTGG | 0.00696
ACTATGTG | -0.0226
ACCTGACA | -0.0449
GGGTGTAC | -0.0838
CCGGATCC | 0.0159
CCCAGTCA | -0.244
GATAAAGC | 0.182
AAGCATGT | -0.0132
ACTTCCGG | -0.00584
CAGCGGTC | -0.247
ACCTGAAA | -0.0644
AAGGGAGC | -0.196
AAGCCCGT | -0.0265
CTTCAGCA | -0.126
GTCTTGAA | 0.211
AAGACTAG | -0.15
ATCTTTGA | 0.108
